Data taken from the supplement of paper PMC10849652.
This is one part of the list. Residues, ends and D or L forms follow the SMILES beside them. *: point of attachment. Cbz = O=C(OCc1ccccc1)*

Sequences of proteins named here, by UniProt entry; tags and fusion partners are left off. A change or cut given only in a name is not applied to a line headed by its entry.
UniProt O15321, whole entry, looked up: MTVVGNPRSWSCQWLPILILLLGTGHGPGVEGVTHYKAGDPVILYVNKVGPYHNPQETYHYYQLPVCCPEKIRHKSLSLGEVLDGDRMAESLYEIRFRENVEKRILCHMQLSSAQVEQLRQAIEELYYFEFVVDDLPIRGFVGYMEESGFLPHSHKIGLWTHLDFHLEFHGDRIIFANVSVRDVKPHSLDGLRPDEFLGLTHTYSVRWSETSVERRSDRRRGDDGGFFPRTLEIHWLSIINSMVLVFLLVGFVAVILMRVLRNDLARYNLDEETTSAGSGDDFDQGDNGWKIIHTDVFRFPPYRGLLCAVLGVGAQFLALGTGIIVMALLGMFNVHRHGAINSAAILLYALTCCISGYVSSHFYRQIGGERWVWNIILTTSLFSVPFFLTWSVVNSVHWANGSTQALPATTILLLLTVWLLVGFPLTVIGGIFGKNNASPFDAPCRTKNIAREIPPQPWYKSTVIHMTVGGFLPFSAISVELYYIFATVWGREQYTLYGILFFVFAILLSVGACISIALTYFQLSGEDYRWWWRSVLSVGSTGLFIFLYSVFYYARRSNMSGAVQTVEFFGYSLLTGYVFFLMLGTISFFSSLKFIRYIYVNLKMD
UniProt Q9BVK6: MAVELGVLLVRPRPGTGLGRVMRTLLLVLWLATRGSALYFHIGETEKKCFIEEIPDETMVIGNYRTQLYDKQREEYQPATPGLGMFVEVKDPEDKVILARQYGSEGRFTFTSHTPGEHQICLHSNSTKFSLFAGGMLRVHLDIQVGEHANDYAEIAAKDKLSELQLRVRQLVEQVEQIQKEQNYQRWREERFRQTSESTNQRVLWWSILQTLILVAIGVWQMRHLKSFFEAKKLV
UniProt Q9NX00: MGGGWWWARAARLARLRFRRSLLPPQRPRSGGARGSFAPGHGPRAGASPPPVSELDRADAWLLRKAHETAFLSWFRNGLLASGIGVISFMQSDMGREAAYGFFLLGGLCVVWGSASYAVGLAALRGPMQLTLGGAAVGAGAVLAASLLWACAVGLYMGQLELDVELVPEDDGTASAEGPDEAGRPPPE
UniProt Q9NVV0: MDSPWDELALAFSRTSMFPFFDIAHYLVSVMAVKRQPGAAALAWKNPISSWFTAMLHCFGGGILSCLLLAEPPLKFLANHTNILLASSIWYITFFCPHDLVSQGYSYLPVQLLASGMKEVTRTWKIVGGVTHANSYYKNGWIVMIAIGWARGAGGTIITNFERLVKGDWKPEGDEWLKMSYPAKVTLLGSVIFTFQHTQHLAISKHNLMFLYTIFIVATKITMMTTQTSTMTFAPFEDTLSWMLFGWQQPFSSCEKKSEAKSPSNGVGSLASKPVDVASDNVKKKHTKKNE
UniProt Q5BJD5: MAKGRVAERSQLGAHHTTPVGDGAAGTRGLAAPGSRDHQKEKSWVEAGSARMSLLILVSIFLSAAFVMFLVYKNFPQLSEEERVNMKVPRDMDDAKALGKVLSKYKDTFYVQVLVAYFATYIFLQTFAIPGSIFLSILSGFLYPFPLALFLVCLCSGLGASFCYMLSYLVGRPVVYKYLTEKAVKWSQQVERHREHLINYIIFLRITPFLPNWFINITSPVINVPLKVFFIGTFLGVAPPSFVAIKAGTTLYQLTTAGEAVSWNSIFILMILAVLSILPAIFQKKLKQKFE
UniProt Q9NWD8: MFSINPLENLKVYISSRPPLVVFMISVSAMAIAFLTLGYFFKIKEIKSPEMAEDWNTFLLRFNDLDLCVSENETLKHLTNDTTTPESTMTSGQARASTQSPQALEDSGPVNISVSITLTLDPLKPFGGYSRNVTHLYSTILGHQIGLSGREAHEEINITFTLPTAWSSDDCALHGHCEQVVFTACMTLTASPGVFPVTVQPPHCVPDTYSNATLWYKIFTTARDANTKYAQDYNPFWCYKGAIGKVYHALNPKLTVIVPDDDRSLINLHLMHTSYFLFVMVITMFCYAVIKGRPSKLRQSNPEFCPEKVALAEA
UniProt Q9BTV4: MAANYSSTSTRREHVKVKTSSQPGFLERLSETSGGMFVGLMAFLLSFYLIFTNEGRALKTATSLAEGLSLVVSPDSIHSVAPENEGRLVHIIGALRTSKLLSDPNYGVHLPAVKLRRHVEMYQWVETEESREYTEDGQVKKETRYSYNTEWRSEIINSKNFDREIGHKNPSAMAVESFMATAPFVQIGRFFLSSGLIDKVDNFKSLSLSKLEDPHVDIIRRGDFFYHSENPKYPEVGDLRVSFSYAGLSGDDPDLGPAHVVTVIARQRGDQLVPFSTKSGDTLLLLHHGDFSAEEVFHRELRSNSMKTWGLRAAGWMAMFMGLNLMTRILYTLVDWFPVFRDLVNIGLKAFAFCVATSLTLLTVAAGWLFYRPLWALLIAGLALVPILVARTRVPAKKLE
UniProt Q9H1E5: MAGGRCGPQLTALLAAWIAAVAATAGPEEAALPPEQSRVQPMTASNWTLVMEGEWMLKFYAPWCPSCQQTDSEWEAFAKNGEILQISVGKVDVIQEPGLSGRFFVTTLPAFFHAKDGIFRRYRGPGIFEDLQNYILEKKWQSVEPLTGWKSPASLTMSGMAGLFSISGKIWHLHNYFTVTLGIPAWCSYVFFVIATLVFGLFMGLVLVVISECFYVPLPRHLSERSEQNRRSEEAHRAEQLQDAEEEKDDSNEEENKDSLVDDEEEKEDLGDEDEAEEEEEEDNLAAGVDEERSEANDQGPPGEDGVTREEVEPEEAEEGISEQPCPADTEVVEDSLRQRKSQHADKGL
UniProt Q9Y490: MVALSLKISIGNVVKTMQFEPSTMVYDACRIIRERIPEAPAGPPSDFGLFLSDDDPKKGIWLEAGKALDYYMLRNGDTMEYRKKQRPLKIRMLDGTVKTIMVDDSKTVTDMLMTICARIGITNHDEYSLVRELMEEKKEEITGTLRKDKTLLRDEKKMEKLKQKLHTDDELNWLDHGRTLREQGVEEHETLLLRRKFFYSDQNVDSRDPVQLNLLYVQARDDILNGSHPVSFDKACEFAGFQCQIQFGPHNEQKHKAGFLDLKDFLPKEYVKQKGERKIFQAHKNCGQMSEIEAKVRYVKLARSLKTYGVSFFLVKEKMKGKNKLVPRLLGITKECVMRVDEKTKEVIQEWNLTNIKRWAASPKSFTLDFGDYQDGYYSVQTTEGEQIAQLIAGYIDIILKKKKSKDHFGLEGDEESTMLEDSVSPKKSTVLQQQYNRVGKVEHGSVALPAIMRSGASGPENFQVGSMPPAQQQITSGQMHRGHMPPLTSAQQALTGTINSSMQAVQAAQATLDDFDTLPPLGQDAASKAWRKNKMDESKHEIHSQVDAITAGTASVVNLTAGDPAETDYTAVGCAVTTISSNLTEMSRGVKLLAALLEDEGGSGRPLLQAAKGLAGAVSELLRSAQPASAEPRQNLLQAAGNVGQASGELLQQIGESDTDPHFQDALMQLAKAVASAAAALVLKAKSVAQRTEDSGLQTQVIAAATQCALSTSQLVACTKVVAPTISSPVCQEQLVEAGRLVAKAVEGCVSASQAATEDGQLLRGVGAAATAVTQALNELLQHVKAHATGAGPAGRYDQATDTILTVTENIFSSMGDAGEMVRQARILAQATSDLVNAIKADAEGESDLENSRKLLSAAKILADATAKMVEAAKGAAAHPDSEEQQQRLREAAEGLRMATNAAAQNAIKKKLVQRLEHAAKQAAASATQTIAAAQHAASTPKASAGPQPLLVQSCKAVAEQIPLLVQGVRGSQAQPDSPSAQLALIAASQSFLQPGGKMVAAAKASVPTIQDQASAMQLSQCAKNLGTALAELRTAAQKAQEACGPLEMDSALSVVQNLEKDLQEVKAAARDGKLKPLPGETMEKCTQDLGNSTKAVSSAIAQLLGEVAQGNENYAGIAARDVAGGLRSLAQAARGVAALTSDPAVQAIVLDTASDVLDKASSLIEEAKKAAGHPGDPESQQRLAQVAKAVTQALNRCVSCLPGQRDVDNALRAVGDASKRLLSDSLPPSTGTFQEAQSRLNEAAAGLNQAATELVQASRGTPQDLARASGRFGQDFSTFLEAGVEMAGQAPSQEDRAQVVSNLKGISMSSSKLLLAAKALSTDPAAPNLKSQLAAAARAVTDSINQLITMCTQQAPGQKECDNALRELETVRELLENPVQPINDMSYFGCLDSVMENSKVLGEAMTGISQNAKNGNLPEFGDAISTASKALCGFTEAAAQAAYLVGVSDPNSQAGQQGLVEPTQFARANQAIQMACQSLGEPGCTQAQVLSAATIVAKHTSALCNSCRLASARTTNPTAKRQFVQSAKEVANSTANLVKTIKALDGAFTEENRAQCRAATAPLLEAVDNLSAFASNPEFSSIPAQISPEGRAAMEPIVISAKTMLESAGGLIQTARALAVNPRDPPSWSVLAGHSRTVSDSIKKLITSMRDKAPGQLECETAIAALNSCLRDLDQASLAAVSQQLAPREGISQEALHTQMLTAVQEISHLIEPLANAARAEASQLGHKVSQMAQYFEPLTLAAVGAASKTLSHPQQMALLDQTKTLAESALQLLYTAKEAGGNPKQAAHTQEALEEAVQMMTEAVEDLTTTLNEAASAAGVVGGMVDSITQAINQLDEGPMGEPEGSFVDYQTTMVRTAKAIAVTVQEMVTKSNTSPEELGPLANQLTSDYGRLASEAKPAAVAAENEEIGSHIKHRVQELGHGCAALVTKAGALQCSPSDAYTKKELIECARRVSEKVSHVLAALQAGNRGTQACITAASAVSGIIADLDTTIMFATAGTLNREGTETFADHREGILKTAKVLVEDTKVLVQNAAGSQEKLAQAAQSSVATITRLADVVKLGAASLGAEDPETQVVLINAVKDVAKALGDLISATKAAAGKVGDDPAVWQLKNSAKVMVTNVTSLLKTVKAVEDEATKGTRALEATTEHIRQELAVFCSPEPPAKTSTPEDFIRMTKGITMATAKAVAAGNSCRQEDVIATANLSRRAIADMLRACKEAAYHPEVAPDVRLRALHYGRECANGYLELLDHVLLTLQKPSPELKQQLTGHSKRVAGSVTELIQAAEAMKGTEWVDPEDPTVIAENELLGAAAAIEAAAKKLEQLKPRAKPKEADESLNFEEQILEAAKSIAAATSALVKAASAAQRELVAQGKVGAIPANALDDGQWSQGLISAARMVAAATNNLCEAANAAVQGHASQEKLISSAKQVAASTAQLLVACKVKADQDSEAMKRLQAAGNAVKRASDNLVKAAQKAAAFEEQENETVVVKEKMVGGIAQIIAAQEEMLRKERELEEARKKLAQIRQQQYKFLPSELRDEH
UniProt Q5BJF2, whole entry, looked up: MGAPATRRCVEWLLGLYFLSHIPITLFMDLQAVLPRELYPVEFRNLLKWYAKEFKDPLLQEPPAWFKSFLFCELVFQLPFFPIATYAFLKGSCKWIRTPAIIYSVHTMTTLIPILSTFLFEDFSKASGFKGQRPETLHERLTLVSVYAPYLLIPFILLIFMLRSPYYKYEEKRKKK
UniProt Q6ZT21: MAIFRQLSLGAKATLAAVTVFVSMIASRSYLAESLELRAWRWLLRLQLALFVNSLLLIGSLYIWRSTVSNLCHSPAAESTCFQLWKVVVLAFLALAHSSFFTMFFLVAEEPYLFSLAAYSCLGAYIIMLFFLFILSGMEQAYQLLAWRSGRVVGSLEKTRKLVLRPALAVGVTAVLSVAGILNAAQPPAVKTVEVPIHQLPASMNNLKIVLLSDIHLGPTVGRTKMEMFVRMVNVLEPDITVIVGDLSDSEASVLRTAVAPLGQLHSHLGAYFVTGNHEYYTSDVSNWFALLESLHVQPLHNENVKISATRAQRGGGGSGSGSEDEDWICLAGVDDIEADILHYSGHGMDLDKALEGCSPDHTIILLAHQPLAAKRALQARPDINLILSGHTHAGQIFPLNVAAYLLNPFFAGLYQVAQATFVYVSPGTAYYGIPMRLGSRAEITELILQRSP
UniProt Q4ZIN3: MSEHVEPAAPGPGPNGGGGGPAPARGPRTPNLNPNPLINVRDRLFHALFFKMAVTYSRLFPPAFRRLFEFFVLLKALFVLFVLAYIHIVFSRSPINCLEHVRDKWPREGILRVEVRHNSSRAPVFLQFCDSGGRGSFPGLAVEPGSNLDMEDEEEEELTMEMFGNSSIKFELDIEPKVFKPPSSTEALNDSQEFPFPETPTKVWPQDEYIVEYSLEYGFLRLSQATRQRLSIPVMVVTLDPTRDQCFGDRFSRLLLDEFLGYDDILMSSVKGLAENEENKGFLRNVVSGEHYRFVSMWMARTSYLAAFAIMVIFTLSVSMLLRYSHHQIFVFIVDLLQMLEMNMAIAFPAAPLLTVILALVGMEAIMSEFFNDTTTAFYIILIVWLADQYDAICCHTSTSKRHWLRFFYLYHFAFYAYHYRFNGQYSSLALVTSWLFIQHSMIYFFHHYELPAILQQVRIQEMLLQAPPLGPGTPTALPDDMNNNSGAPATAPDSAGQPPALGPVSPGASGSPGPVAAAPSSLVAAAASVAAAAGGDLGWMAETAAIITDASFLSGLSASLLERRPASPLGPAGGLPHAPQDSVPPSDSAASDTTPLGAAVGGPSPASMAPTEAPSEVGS

Legend:
Experiment in all cases: log2 fold change, soluble protein after heating vs DMSO (PISA); higher = thermal stabilisation; K562 cells, 10 uM, 30 min; active = over 0.2 and 3.5 SD of the protein, either way, in both replicates (recomputed)
erlotinib = compound: C#Cc1cccc(Nc2ncnc3cc(OCCOC)c(OCCOC)cc23)c1 [erlotinib]
In short: (§1)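 Quantification of soluble protein used TMTpro 16plex LC-MS/MS, with channel sums equalised. Samples were the supernatant after 21,000xg for 90 min of pooled aliquots from K562 cells (2×10^6 cells/mL) treated with 10 μM compound for 30 min, heated for 3 min over 48°C-58°C, and extracted in PBS with 0.5% NP-40 at 4°C. Values, from duplicates, describe thermal stability against control samples on a log2 fold-change scale.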

[1] = compound: C/C(=N\NC(=O)C1=CC(=CC=C1)S(=O)(=O)N2CCOCC2)/C3=C(C=CC(=C3)Cl)O
In short: as §1

[2] = compound: C1=CC(=C(C=C1Cl)C2=NC3=NC=CN=C3C(=N2)NC4=CC=NC=C4)F
In short: as §1

[3] = compound: C1=CC(=CC=C1C2=NC3=C(N2)C=C(C=C3)C(=O)N)OC4=CC=C(C=C4)Cl
In short: as §1

[4] = compound: C1=CC2=C(C=CC(=C2)/C=C\3/C(=O)NC(=NCC4=CC=CS4)S3)N=C1
In short: as §1

[5] = compound: C1=CC2=NC=CN=C2C=C1/C=C/3\C(=O)NC(=O)S3
In short: as §1

[6] = compound: C1=CC=C(C=C1)C2=NC(=C(N2)C3=CC=NC=C3)C4=CC(=C(C=C4)Cl)O
In short: as §1

[7] = compound: C1=CC=C2C(=C1)C3=NNC4=CC=CC(=C43)C2=O
In short: as §1

[8] = compound: C1CCN(C1)C(=O)NC2=CC=CC(=C2)NC3=NC=C(C(=N3)NCCC4=CN=CN4)Br
In short: as §1

[9] = compound: C1CN(CCC1(CC2=CC=C(C=C2)Cl)N)C3=NC=NC4=C3C=CN4
In short: as §1

IRAK-1-4 Inhibitor I = compound: C1COCCN1CCN2C3=CC=CC=C3N=C2NC(=O)C4=CC(=CC=C4)[N+](=O)[O-] [IRAK-1-4 Inhibitor I]
In short: as §1

ibrutinib = compound: C=CC(=O)N1CCC[C@@H](n2nc(-c3ccc(Oc4ccccc4)cc3)c3c(N)ncnc32)C1 [ibrutinib]
In short: as §1

[10] = compound: CC(=O)c1cnc2ccc(-c3cc(Cl)c(O)c(Cl)c3)nc2c1N[C@H]1CC[C@H](CN(C)C)CC1
In short: as §1

ralimetinib = compound: CC(C)(C)Cn1c(N)nc2ccc(-c3[nH]c(C(C)(C)C)nc3-c3ccc(F)cc3)nc21 [ralimetinib]
In short: as §1

[11] = compound: CC(C)(O)CC(=O)NCCn1ccc2ncnc(Nc3ccc(Oc4cccc(C(F)(F)F)c4)c(Cl)c3)c21
In short: as §1

[12] = compound: CC(C)C1=C2N=C(C=C(N2N=C1)NCC3=CC=CC=C3)NCCCCCCN
In short: as §1

[13] = compound: CC(C)C[C@@H](C=O)NC(=O)[C@H](CC(C)C)NC(=O)[C@H](CC(C)C)NC(=O)OCc1ccccc1
In short: as §1

pinometostat = compound: CC(C)N(C[C@H]1O[C@@H](n2cnc3c(N)ncnc32)[C@H](O)[C@@H]1O)[C@H]1C[C@@H](CCc2nc3cc(C(C)(C)C)ccc3[nH]2)C1 [pinometostat]
In short: as §1

[14] = compound: CC1=C(C(CC(=O)N1)C2=CC=C(C=C2)C(F)(F)F)C(=O)NC3=C(C=C4C(=C3)C=NN4)F
In short: as §1

[15] = compound: CC1=C(C2=C(C=C1)C(=O)C3=CC=CC=C3N2CCCN)C
In short: as §1

Measured: log2 fold change

TM9SF1 (UniProt O15321)
inactive: erlotinib -0.03 | [1] 0.011 | [2] -0.015 | [3] 0.01 | [4] 0.033 | [5] -0.257 | [6] -0.026 | [7] 0.029 | [8] -0.024 | [9] 0.091 | IRAK-1-4 Inhibitor I 0.228 | ibrutinib 0.243 | [10] -0.028 | ralimetinib 0.105 | [11] 0.153 | [12] 0.093 | [13] 0.033 | pinometostat 0.16 | [14] -0.048 | [15] -0.009

TMED9 (UniProt Q9BVK6)
inactive: erlotinib 0.075 | [1] 0.024 | [2] 0.063 | [3] -0.04 | [4] 0.007 | [5] 0.032 | [6] -0.018 | [7] -0.023 | [8] -0.033 | [9] 0.037 | IRAK-1-4 Inhibitor I 0.052 | ibrutinib 0 | [10] 0.047 | ralimetinib 0.028 | [11] -0.035 | [12] -0.03 | [13] -0.048 | pinometostat -0.023 | [14] -0.075 | [15] 0.008

TMEM160 (UniProt Q9NX00)
inactive: erlotinib -0.074 | [1] -0.131 | [2] -0.056 | [3] 0.082 | [4] 0.031 | [5] 0.017 | [6] -0.037 | [7] 0.011 | [8] 0.119 | [9] 0.009 | IRAK-1-4 Inhibitor I 0.16 | ibrutinib 0.075 | [10] -0.04 | ralimetinib -0.038 | [11] -0.032 | [12] -0.106 | [13] -0.076 | pinometostat 0.217 | [14] 0.014 | [15] -0.011

Quoted from the results shown (2 entries):
TM9SF1 (UniProt O15321)
inactive: erlotinib -0.03 | [1] 0.011 | [2] -0.015 | [3] 0.01 | [4] 0.033 | [5] -0.257 | [6] -0.026 | [7] 0.029 | [8] -0.024 | [9] 0.091 | IRAK-1-4 Inhibitor I 0.228 | ibrutinib 0.243 | [10] -0.028 | ralimetinib 0.105 | [11] 0.153 | [12] 0.093 | [13] 0.033 | pinometostat 0.16 | [14] -0.048 | [15] -0.009

TMED9 (UniProt Q9BVK6)
inactive: erlotinib 0.075 | [1] 0.024 | [2] 0.063 | [3] -0.04 | [4] 0.007 | [5] 0.032 | [6] -0.018 | [7] -0.023 | [8] -0.033 | [9] 0.037 | IRAK-1-4 Inhibitor I 0.052 | ibrutinib 0 | [10] 0.047 | ralimetinib 0.028 | [11] -0.035 | [12] -0.03 | [13] -0.048 | pinometostat -0.023 | [14] -0.075 | [15] 0.008

More entries follow.

TMEM38B (UniProt Q9NVV0)
inactive: erlotinib -0.037 | [1] -0.029 | [2] 0.039 | [3] 0.039 | [4] 0.034 | [5] 0 | [6] 0.037 | [7] -0.055 | [8] 0.002 | [9] 0.01 | IRAK-1-4 Inhibitor I -0.003 | ibrutinib 0.03 | [10] -0.042 | ralimetinib 0.013 | [11] 0.017 | [12] 0.059 | [13] -0.005 | pinometostat -0.003 | [14] 0.027 | [15] 0.008

TMEM41B (UniProt Q5BJD5)
inactive: erlotinib -0.072 | [1] -0.103 | [2] 0.006 | [3] -0.02 | [4] 0.045 | [5] 0.046 | [6] -0.016 | [7] -0.036 | [8] 0.062 | [9] 0.09 | IRAK-1-4 Inhibitor I -0.098 | ibrutinib -0.017 | [10] -0.065 | ralimetinib -0.016 | [11] 0.133 | [12] -0.194 | [13] -0.077 | pinometostat -0.068 | [14] 0.013 | [15] 0.049

TMEM248 (UniProt Q9NWD8)
inactive: erlotinib -0.113 | [1] 0.058 | [2] -0.067 | [3] 0.093 | [4] -0.05 | [5] 0.022 | [6] 0.033 | [7] -0.096 | [8] 0.085 | [9] 0.015 | IRAK-1-4 Inhibitor I 0.041 | ibrutinib 0.017 | [10] 0.054 | ralimetinib -0.042 | [11] 0.084 | [12] -0.011 | [13] 0.184 | pinometostat -0.028 | [14] 0.059 | [15] -0.137

TMOD2 (UniProt Q9NZR1)
inactive: erlotinib -0.167 | [1] 0.038 | [2] 0.333 | [3] 0.332 | [4] -0.015 | [5] -0.009 | [6] 0.124 | [7] -0.028 | [8] -0.059 | [9] 0.056 | IRAK-1-4 Inhibitor I -0.03 | ibrutinib 0.06 | [10] 0.061 | ralimetinib -0.072 | [11] -0.048 | [12] 0.026 | [13] -0.441 | pinometostat -0.073 | [14] -0.097 | [15] 0.133

TMEM43 (UniProt Q9BTV4)
inactive: erlotinib -0.02 | [1] -0.049 | [2] -0.042 | [3] -0.002 | [4] -0.015 | [5] 0.01 | [6] 0.014 | [7] -0.026 | [8] 0.016 | [9] 0.022 | IRAK-1-4 Inhibitor I -0.049 | ibrutinib -0.008 | [10] 0.042 | ralimetinib 0.012 | [11] 0.006 | [12] -0.188 | [13] 0.02 | pinometostat 0.073 | [14] -0.041 | [15] 0

TMX4 (UniProt Q9H1E5)
inactive: erlotinib -0.008 | [1] -0.045 | [2] -0.049 | [3] -0.049 | [4] 0.016 | [5] 0.064 | [6] 0.092 | [7] -0.022 | [8] 0.05 | [9] 0.035 | IRAK-1-4 Inhibitor I -0.02 | ibrutinib -0.006 | [10] -0.052 | ralimetinib 0.028 | [11] 0.017 | [12] 0.032 | [13] -0.01 | pinometostat 0.049 | [14] -0.015 | [15] 0.045

TMA16 (UniProt Q96EY4)
inactive: erlotinib -0.06 | [1] -0.118 | [2] -0.43 | [3] 0.047 | [4] -0.039 | [5] -0.084 | [6] -0.024 | [7] 0.001 | [8] 0.043 | [9] -0.069 | IRAK-1-4 Inhibitor I -0.057 | ibrutinib 0.024 | [10] 0.108 | ralimetinib 0.095 | [11] 0.003 | [12] 0.039 | [13] 0.077 | pinometostat 0.268 | [14] -0.046 | [15] -0.166

TLN1 (UniProt Q9Y490)
inactive: erlotinib -0.011 | [1] 0.063 | [2] 0.073 | [3] -0.018 | [4] -0.009 | [5] 0.018 | [6] 0.021 | [7] 0.028 | [8] -0.009 | [9] -0.021 | IRAK-1-4 Inhibitor I -0.016 | ibrutinib -0.045 | [10] 0.015 | ralimetinib 0.025 | [11] -0.088 | [12] -0.048 | [13] -0.018 | pinometostat -0.021 | [14] -0.007 | [15] 0.031

TMEM97 (UniProt Q5BJF2)
inactive: erlotinib -0.074 | [1] -0.025 | [2] 0.02 | [3] 0.123 | [4] 0.065 | [5] 0.013 | [6] -0.062 | [7] -0.032 | [8] -0.035 | [9] 0.038 | IRAK-1-4 Inhibitor I 0.015 | ibrutinib 0.028 | [10] -0.034 | ralimetinib 0.02 | [11] 0.002 | [12] 0.126 | [13] -0.219 | pinometostat -0.002 | [14] 0.047 | [15] -0.018

TMPPE (UniProt Q6ZT21)
inactive: erlotinib 0.042 | [1] 0.057 | [2] -0.021 | [3] -0.026 | [4] 0.037 | [5] 0.019 | [6] 0.006 | [7] -0.028 | [8] 0.058 | [9] -0.039 | IRAK-1-4 Inhibitor I 0.019 | ibrutinib -0.007 | [10] -0.031 | ralimetinib -0.015 | [11] 0.015 | [12] -0.032 | [13] -0.006 | pinometostat -0.042 | [14] -0.019 | [15] 0.062

TMEM259 (UniProt Q4ZIN3)
inactive: erlotinib 0.019 | [1] -0.027 | [2] -0.015 | [3] 0.038 | [4] 0.052 | [5] 0.067 | [6] -0.039 | [7] -0.102 | [8] 0.012 | [9] 0.061 | IRAK-1-4 Inhibitor I 0.017 | ibrutinib 0.038 | [10] 0 | ralimetinib 0.041 | [11] -0.014 | [12] -0.037 | [13] -0.011 | pinometostat 0.027 | [14] 0.045 | [15] 0.03

TMEM126B (UniProt Q8IUX1)
inactive: erlotinib -0.025 | [1] 0.039 | [2] 0.112 | [3] 0.038 | [4] -0.004 | [5] 0.041 | [6] -0.001 | [7] 0.016 | [8] 0.022 | [9] 0.092 | IRAK-1-4 Inhibitor I 0.027 | ibrutinib -0.011 | [10] 0.023 | ralimetinib -0.029 | [11] 0.017 | [12] 0.001 | [13] 0.01 | pinometostat -0.018 | [14] -0.054 | [15] 0.009

TMEM30A (UniProt Q9NV96)
inactive: erlotinib -0.007 | [1] 0.055 | [2] 0.016 | [3] -0.001 | [4] 0.067 | [5] 0.056 | [6] 0.002 | [7] -0.021 | [8] 0.006 | [9] 0.026 | IRAK-1-4 Inhibitor I 0.009 | ibrutinib -0.026 | [10] -0.003 | ralimetinib -0.045 | [11] -0.01 | [12] 0.056 | [13] -0.001 | pinometostat -0.022 | [14] -0.012 | [15] -0.081
